This note sets out measurements from PMC4737751.

Protein sequences, listed by entry. Tags and fused reporters are not part of them.
UniProt P87112: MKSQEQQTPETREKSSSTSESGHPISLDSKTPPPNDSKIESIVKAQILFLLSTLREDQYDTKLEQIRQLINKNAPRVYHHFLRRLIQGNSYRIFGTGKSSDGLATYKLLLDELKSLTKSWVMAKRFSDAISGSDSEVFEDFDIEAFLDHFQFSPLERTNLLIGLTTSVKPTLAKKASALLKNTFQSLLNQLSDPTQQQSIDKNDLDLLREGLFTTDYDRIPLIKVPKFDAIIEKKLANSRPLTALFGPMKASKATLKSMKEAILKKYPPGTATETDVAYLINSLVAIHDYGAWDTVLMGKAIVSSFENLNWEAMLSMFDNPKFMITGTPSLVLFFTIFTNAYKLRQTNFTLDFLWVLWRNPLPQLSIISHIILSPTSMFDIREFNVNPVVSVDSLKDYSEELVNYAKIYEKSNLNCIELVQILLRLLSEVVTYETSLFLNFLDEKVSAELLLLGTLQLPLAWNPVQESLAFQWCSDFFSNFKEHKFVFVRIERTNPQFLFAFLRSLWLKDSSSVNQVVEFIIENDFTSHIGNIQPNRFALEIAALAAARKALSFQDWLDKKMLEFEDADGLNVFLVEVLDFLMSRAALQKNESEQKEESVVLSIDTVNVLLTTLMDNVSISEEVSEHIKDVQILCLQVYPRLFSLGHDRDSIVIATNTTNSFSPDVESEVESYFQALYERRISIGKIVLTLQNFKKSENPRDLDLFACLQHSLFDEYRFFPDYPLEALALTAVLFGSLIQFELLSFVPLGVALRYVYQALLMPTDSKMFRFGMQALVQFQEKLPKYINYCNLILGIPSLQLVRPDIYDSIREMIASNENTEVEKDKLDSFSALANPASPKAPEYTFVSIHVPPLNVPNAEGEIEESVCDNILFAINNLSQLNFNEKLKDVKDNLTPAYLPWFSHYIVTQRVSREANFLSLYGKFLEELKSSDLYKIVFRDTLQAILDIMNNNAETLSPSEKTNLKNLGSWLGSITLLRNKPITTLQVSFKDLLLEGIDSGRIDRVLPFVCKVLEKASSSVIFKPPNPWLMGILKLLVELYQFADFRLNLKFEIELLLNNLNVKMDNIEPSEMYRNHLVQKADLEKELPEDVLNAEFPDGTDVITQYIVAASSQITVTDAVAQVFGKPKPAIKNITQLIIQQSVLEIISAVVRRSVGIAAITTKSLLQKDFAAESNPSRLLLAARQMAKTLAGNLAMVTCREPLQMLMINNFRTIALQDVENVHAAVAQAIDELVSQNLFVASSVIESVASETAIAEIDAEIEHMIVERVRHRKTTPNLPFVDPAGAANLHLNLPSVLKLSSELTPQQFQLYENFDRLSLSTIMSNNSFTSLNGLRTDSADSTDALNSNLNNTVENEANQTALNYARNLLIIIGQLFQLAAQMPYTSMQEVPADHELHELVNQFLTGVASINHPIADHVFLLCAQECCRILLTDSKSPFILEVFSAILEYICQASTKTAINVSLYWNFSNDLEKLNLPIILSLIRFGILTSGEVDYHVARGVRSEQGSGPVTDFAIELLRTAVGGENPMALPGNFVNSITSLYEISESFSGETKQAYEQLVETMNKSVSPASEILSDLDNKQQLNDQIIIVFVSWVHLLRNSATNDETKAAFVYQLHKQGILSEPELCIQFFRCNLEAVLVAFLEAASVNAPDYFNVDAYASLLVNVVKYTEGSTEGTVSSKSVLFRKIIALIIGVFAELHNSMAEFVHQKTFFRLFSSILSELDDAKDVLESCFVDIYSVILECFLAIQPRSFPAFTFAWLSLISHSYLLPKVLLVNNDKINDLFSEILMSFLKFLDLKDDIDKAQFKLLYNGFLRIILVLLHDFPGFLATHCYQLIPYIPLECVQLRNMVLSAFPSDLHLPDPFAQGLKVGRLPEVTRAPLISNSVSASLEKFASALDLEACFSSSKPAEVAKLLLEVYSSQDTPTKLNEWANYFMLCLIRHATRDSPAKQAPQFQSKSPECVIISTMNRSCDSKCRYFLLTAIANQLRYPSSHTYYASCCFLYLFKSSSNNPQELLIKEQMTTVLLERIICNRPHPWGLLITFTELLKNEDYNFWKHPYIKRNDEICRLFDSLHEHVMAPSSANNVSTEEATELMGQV

These are yes or no findings as the source states them, for the method shown. Binding seen in cells or lysates may run through a third protein. A yes stands for co-enrichment or nearness to the bait. Other partners may have been found. Sequences can lack the tags named with a protein.

B1: Caf40 (Ccr4-associated factor 40), S. pombe CCR4-NOT subunit (protein, UniProt Q92368 1-283)
chain: MENLESPNYEPALVYEWIIQLVSGTSREQALVELSRKREQYEDLALILWHSYGVMTALLQEIISVYPLLNPPTLTGPTSNRVCNALALLQCIASHPETRIHFLNAHITLFLYPFLNTLSKSKPFEYLRLTSLGVIGALVKNDSPEVINFLLSTEIIPLCLRIMENGSELSKTVAIFIVQKFLCDDVGLQYICQTYERFYAVASVLNNMVMQLVDSFAFRLLKHVIRCYLRLSDNPRAREALRHCLPEPLRDATFAQVLKDDHNTKKCLAQLLINLSDVAVVNQ
B2: Mmi1, S. pombe YTH family nuclear RNA-binding protein (protein, UniProt O74958 1-488)
chain: MSNTNFSTSRSSKSIPELPNLEALRSLWPPPSLNESGDTRSVWTTHTGEPVASSVLSTSGSNNFSSPLKRPAPESHDAPIGRRLMVDDPRLIKHGKYDFSRHCTDYGHSYEWPYFRSLRRESMLYHTSGSYPESQPPYSSYSTDAPHYYHAGSESSAYYDSRSRLHGIQPPPKRRTLSPPPRRLADPVVVGSSRYVEEEVYRRPPYTLASEVPSSASAYQAGYSSYPVRSSPQLSHEDTRHGIASSGSTRYPFVPANTRASHSPSLLEPYAHSLPSSVAPVGAYPEKSSYLLSNSSNDSASRKEKPKARASTPPPLNFSRASEHRNEKGERISMINPRVVLDENGISHRSRYFIMLCDNETAIAHAKKTSIWAVKKDSSKRISDAYKKASVYFIFVAQQTYNALGYAQVVSDLNSTELPFWSDSSHAGGVRIKWIKTCNLFSAEISEIVSHMDHGSEARDGMEMMYDEGSRLCTLINYAIMKRIGRDR
B3: Ccr4, S. pombe CCR4-NOT deadenylase subunit (protein, UniProt O74874 1-690)
chain: MFNPRYTQGTIYPGAHPGLLTPDHQHAAILSVQNSPALENSNISEHWKQQIALATQSRSFSSPHQRAHNAAALARSGGPGFSMNYNARTGAFTGGPNAAGLSSLGGKYNTSSTTTTLTTSTTLNTSSGTTLNSTSKTTTSSVAVDDQKSKSDSKKERRDWTCLDLGGIGLRNVSTDLFKFSFLTELYINHNNLTRLPPEIGKLKNLVILDASGNSIKTIPPELGLLTELREVLLFDNMISVIPAELGTLFQLKILGIEGNPLQDVYKNQIMESGTAGLIAALRDGCPVGPPPPERGWEKLVSDDDDDVNDNVSTSVRDLTAADSNKPSTTSKNLKFTIMSYNVLCERYATSTLYGYTPSWALSWSYRKDLIMQELGGYNADIICLQEVDVENYDTFFAPQMSLKGYKGVHFPKSRVRTMNEVERRIVDGCATFFKTSKYVMHEKMVIEYNQAPSLRRQDIKLTSNMYNRVMTKDNISVITLLENKENGSRLIVANCHIHWDPQFRDVKVIQVAMLMDEIAQVATKFRNMPSKIPSDQLKDERPTYPEYLKIPILICGDFNSVQGSGVYDFLSSGSISQNHEDFMNNDYGEYTVNGRSHAFNLKSAYGESEALSFTNYTPGFKGAIDHIWYTGNSLEVTGLLKGVDKDYLSGVVGFPNAHFPSDHICLLAEFKVKQEKTPLPSSKFNNDKK
B4: Caf1, S. pombe CCR4-NOT deadenylase subunit (protein, UniProt O74856 1-335)
chain: MTAMNSNFSYPALGVDGISSQISPIRDVWSTNLQQEMNLIMSLIERYPVVSMDTEFPGVVARPLGVFKSSDDYHYQTLRANVDSLKIIQIGLALSDEEGNAPVEACTWQFNFTFNLQDDMYAPESIELLTKSGIDFKKHQEVGIEPADFAELLIGSGLVLQEEVTWITFHSGYDFAYLLKAMTQIPLPAEYEEFYKILCIYFPKNYDIKYIMKSVLNNSKGLQDIADDLQIHRIGPQHQAGSDALLTARIFFEIRSRYFDGSIDSRMLNQLYGLGSTGSVLWHNNSSTPQIQFRDLPGAHPSPTPSNAGIPTTLTNTSSAPNFANSTFRFPPRVV

The target of this experiment is T1, Not2 subunit of the S. pombe CCR4-NOT complex, fused to Protein A with a TEV protease cleavage site (S. pombe) (UniProt P87240).
T1 sequence: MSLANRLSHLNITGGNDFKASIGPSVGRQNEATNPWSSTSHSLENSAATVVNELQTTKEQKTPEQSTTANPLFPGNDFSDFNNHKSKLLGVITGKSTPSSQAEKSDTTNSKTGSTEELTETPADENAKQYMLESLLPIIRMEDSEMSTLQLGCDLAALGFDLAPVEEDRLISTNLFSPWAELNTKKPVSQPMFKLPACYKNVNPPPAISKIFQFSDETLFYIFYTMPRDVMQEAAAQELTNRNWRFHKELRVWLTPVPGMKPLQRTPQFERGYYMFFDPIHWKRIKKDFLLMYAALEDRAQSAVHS
The experiment is described as follows: affinity purification with mass spectrometry; Protein A tag on Not2 captured on IgG Sepharose from S. pombe extract, washes with 500 mM NaCl, TEV elution, 10-30% glycerol gradient (10 mM HEPES pH 8.0, 500 mM NaCl); subunits identified by mass spectrometry; the same preparation gave the EM reconstructions.
For the molecule “Not1 (negative on TATA 1), S. pombe CCR4-NOT subunit (from UniProt P87112 1-2100)”, the binding result is “binds”.

For “Not4, S. pombe CCR4-NOT subunit (E3 ubiquitin ligase)”, the binding result is listed as “binds”.

Regarding B1, the binding result was “binds”.

Consider B2, for which the binding entry was “binds”.

In the case of B3, the binding entry is listed as “binds”.

Consider B4, for which the binding result was “binds”.
